Experimental data published in US7851630B2, “Hydronopol substituted benzimidazolone and quinazolinone derivatives as agonists on human ORL1 receptors” (dated 2010).
The match of structure and compound is tentative. Some compounds may have been tested in ways that are not shown here.

Sequences of proteins named here, by UniProt entry; tags and fusion partners are left off.
UniProt P41146, whole entry: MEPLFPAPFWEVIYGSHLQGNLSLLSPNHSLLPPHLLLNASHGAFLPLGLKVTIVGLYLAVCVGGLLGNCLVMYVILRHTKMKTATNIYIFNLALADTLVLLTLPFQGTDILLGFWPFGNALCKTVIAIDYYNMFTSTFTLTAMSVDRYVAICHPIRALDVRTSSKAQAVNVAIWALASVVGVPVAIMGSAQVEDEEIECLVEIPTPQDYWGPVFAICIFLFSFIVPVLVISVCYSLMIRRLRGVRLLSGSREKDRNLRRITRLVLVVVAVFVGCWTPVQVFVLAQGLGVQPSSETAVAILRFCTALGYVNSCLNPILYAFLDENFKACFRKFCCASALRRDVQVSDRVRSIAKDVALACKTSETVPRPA
UniProt P35372, whole entry: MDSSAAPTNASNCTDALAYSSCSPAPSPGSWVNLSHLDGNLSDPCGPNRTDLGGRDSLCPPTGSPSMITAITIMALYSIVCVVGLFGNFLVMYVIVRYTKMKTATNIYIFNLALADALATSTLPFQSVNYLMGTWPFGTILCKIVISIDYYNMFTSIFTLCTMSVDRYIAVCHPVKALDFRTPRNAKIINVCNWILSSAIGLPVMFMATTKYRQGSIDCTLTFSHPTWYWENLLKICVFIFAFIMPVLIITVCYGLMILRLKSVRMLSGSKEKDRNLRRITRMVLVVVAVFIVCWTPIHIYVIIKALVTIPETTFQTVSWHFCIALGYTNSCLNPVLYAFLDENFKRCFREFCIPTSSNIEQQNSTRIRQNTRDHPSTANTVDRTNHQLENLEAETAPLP

Tests used:
[1] = test system: conditioned ultrasonic distress vocalisation; settings: tested form: HCl
ORL1 receptor [2] = target: T1, ORL1 receptor (Homo sapiens, UniProt P41146); assay: In vitro ORL1 receptor agonism, cAMP assay; settings: tested form: HCl
human μ-opiate receptor = human μ-opiate receptor (Homo sapiens, UniProt P35372); assay: Affinity for μ-opiate receptors, [3H]-naloxone receptor binding assay; settings: membranes of CHO cells expressing human μ-opiate receptor, tested form: HCl
ORL1 receptor [3] = target: T1, ORL1 receptor; assay: Affinity for human ORL1 receptors, [3H]-nociceptin receptor binding assay; settings: membranes of CHO cells expressing human ORL1 receptor, tested form: HCl

CC1(C)[C@H]2CC[C@@H](CCN3CCC(n4c(=O)[nH]c5ccccc54)CC3)[C@@H]1C2
In vivo agonism C.U.D.V. i.p. ED50 ([1]; intraperitoneal administration): 1.4 mg/kg | In vivo agonism C.U.D.V. p.o. ED50 ([1]; oral administration): 6.0 mg/kg | In vitro agonism cAMP assay pEC50 (ORL1 receptor [2]): 8.6 | affinity μ-opiate pKi (human μ-opiate receptor): 7.2 | affinity ORL1 pKi (ORL1 receptor [3]): 8.4
